Assay results from patent publication US20170002406.

Tests used:
[1] = biological target: T1, T4 Dda-E94C/A360C (UniProt P32270); test: binding assay; settings: flanked by four iSpC3 spacers on each side; nanopore (MspA) translocation; pre-incubated at room temperature; active helicase with 10 mM MgCl2, 1 mM ATP, 600 mM KCl pH 8.0; purified recombinant protein; single-stranded DNA
T1 sequence: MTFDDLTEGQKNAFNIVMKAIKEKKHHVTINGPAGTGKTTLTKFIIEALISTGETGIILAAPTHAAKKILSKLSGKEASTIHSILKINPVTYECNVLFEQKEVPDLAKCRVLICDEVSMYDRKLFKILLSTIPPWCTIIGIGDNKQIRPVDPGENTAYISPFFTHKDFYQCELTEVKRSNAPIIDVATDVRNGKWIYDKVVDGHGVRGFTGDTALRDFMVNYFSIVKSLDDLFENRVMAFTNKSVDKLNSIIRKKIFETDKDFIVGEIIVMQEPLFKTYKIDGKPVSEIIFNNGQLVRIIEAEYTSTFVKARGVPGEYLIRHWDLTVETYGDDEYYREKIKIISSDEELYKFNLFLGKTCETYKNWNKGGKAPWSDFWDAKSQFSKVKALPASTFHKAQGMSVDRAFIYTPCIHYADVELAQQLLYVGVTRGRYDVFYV

[2] = biological target: T2, T4 Dda-E94C/C109A/C136A/A360C (UniProt P32270); test: binding assay; settings: flanked by four iSpC3 spacers on each side; nanopore (MspA) translocation; active helicase with MgCl2 and ATP; purified recombinant protein; single-stranded …
T2 sequence: T1 sequence with C109A, C136A

TTTTTTTTTTTTTTT [DNA construct Y, T4 Dda loading region (section c)]
binding result [1]: binds | binding result [2]: binds

Residue numbers refer to the chain shown, from its start. For at least one entry, the source does not settle the construct or the ends of the probe. Protein sequences can lack the tags named with them.
